Results from patent EP4644389A1, “PRMT5-MTA INHIBITOR” (Suzhou Puhe Biopharma Co., Ltd., priority 2022, dated 2024).

Assay: Pharmacokinetic evaluation in mice (IV and oral)
Details: mouse, in vivo, CD1 female mice
Protocol: CD1 female mice were used as test animals, and the compounds were administered orally or intravenously (oral dose of 10 mg/kg; intravenous dose of 2 mg/kg).
Experiment protocol: Three mice per group for oral administration, and three mice per group for intravenous administration. Oral: Plasma samples were collected before administration (0 h) and at 0.25, 0.5, 1, 2, 4, 8, and 24 hours post-administration; Intravenous: Plasma samples were collected before administration (0 h) and at 0.083, 0.25, 0.5, 1, 2, 4, 8, and 24 hours post-administration. The plasma drug concentrations in mice after oral and intravenous administration were determined using LC/MS/MS, and the collected data were analyzed using AB Sciex QTRAP 6500 software.

Q: What does the source list for `Cc1cc2cc(C(=O)N(Cc3ccc(C(F)(F)F)cn3)[C@H](C)c3ncccn3)ccc2nc1N` [AM9747, reference compound]?
A: bioavailability (PO (10 mg/kg) vs IV (2 mg/kg)): 61%; Cmax (PO (10 mg/kg), plasma): 1060 ng/mL; Tmax (PO (10 mg/kg), plasma): 15 min
